The record followed here is paper PMC4782999, “The Inhibitory Effect of Non-Substrate and Substrate DNA on the Ligation and Self-Adenylylation Reactions Catalyzed by T4 DNA Ligase”.

Chains of the proteins cited; added tags and fusions are not shown. Lines headed by an entry give the natural chain unless they say otherwise; changes in a name come on top.
UniProt P00970: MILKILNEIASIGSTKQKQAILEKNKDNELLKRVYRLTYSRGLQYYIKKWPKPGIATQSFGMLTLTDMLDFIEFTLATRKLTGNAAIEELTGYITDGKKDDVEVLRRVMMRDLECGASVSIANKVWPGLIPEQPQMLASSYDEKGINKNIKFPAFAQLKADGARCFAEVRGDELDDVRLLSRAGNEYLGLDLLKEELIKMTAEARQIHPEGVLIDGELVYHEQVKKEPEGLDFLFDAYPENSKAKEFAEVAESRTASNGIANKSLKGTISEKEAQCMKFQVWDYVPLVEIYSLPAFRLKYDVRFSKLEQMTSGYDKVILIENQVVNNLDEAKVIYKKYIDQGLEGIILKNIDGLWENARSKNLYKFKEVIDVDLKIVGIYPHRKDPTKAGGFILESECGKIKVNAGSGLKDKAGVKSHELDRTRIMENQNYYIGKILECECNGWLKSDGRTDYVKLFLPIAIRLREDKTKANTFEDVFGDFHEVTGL

Construct, isoform or probe ends are uncertain for at least one entry.

In the data set the target is T4 DNA ligase (deadenylylated) (UniProt P00970). Briefly: EMSA. The note with it: 4 nM DNA, 100-1000 nM ligase, completely bound as ligase increases, 5 mM Mg2+, 1 mM pyrophosphate, no ATP, 5'-phosphate on S2 at nick, 3'-OH on S1, EMSA: 50 mM Tris pH 7.5, 5 mM DTT, 1 mM sodium pyrophosphate, 5% glycerol, room temperature (22 C), 20 min, commercial protein, label: 5'-32P on S2. In general terms: In EMSA bound probe runs differently from free probe, usually more slowly.

On to “GCGCACCCTTACCACCAAGACAGGATCGTCCTTGC / TGATCATGCATCGTTCCACTGTGTCCGCGACATCTACGTC / GACGTAGATGTCGCGGACACAGTGGAACGATGCATGATCAGCAAGGACGATCCTGTCTTGGTGGTAAGGGTGCGC [75mer-ds-nDNA (nicked, 32P)]”, for which the binding result is recorded as “binds”.
